Read-outs that look alike come from different tables or passages of the source. No constants are given. Whether binding was seen depends on the method and setting. Binding seen in cells or lysates may run through a third protein. Some results given as binding are weak or reduced against the parent protein; the word gives no strength.
Columns and labels:
[1] = molecular target: V5-tagged PTPRS (UniProt B0V2N1); assay: co-IP
[2] = molecular target: V5-tagged PTPRS (UniProt B0V2N1); assay: co-IP; remark: listed apart in the source

By UniProt entry, the sequences of proteins in these tests, tags left out. Residues count along the entry.
UniProt B0V2N1, residues 30-1907: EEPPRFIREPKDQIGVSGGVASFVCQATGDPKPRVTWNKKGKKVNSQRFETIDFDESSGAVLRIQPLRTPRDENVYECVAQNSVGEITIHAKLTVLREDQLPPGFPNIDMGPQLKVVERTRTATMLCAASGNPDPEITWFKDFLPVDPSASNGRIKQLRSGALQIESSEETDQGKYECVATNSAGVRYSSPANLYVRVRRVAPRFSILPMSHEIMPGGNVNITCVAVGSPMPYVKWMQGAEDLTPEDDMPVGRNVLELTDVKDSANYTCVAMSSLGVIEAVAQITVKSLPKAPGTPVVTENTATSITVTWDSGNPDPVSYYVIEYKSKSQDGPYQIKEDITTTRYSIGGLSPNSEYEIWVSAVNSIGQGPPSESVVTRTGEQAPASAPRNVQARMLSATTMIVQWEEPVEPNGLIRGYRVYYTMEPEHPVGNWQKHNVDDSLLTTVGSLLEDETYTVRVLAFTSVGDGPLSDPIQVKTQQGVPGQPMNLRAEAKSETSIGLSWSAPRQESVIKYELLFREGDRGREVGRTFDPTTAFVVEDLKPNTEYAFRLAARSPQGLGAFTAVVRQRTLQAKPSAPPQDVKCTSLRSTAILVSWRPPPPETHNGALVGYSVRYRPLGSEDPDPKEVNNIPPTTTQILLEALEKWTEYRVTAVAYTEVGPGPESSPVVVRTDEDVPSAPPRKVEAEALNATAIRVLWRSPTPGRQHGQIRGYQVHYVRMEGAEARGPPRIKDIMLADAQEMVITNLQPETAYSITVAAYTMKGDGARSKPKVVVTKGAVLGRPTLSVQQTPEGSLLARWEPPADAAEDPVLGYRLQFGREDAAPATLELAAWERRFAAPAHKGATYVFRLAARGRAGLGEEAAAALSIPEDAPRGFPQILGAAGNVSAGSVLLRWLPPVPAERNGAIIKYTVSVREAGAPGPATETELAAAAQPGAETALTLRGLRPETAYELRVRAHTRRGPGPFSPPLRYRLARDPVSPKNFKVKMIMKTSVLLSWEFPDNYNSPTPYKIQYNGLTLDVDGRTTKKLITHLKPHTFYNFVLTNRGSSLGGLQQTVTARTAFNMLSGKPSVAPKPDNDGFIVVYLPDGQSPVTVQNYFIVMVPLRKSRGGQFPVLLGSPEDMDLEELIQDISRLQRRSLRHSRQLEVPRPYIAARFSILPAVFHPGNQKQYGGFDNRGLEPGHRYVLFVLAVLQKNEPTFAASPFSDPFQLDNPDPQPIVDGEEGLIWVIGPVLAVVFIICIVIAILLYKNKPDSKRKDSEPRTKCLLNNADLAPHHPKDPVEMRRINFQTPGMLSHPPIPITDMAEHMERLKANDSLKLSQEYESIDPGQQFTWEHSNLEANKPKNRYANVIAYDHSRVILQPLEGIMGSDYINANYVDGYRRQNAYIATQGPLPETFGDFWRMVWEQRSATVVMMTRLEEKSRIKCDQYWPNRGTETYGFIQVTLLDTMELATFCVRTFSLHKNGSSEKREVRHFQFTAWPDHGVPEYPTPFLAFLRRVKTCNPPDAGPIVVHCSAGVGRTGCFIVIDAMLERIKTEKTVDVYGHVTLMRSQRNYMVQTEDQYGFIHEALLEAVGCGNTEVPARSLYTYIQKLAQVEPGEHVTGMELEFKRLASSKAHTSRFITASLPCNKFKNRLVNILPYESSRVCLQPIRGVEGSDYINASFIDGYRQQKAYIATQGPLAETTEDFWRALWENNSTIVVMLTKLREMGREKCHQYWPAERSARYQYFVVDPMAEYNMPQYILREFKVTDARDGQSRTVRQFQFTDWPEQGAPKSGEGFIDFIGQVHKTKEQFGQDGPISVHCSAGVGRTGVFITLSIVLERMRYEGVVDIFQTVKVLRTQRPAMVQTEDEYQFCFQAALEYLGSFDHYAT
UniProt Q6P9K9, residues 28-1571: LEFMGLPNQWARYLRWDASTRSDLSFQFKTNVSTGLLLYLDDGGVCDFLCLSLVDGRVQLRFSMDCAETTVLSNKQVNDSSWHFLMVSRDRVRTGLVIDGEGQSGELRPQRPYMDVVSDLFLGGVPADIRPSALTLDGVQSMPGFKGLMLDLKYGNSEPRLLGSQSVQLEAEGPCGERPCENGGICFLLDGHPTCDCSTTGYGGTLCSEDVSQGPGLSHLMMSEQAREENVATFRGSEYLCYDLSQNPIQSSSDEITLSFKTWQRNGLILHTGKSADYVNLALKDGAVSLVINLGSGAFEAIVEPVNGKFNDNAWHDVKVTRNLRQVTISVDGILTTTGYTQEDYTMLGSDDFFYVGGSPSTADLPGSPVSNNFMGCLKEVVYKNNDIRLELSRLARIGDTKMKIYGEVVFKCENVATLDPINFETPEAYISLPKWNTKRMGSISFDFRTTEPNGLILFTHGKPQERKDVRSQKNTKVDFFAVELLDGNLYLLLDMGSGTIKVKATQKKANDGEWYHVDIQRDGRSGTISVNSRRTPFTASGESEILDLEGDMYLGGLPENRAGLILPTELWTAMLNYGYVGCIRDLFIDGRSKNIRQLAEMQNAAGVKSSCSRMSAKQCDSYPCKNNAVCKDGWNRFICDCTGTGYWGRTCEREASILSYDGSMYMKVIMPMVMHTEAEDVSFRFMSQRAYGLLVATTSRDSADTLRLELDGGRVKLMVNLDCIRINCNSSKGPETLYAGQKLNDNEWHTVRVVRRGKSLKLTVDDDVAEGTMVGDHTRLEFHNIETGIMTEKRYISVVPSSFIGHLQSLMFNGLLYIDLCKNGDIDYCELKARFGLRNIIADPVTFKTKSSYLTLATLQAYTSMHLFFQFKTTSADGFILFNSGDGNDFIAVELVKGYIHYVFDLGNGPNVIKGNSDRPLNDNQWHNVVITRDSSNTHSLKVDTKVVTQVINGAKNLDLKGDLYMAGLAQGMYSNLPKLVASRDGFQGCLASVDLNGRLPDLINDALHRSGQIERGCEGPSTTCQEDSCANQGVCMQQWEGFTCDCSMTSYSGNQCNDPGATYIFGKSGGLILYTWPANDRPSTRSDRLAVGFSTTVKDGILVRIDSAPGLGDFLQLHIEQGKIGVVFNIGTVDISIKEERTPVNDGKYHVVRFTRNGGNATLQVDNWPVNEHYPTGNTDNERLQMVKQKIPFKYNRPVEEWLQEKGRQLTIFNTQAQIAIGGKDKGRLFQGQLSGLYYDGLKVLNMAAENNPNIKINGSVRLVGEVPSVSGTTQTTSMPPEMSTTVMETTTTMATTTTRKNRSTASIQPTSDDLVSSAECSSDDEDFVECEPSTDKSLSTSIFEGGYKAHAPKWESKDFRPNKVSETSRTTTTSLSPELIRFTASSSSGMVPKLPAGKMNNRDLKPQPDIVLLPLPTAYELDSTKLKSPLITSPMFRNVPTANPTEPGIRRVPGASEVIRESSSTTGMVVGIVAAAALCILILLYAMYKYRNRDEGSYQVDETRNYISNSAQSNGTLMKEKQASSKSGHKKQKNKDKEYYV

binding [1]: binds
binding [2]: binds weakly
Substance: HA-tagged NRX3A (from UniProt Q6P9K9 28-1571)

From paper doi:10.1101/2024.07.16.603715
